Some of the results follow. These are further read-outs of the screen, such as a control signal, another cell line or another target. No call is given for them. Compounds called inactive in the main read-out are mostly missing here. Potencies come from curve fits of mixed quality, noted in brackets.
Assay: qHTS Assay for Lipid Storage Modulators in Drosophila S3 Cells;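 for cell number change: cells counted by Cell Tracker Red CMTPX staining in the red channel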
Conditions: BODIPY lipid droplet fluorescence, 18-24 h; for cell number change: measured here: cell count max response, cells fed with added oleic acid
Source text: NIH Molecular Libraries Probe Production Centers Network [MLPCN] NIH Chemical Genomics Center [NCGC] MLPCN Grant: 1 R03 MH085686-01 Assay Submitter (PI): Beller, Mathias; Max-Planck-Institut fur Biophysikalische Chemie NCGC Assay Overview: Storing lipids as a reservoir for energy or the anabolism of elementary metabolites is a common feature of probably all cells and is conserved from bacteria to humans. The universal cellular lipid storage organelle is the so-called lipid storage droplet (LD). Although ubiquitous, LDs share a simple structure composed of a hydrophobic core that harbors the storage lipids, which is shielded by a droplet-specific phospholipid monolayer to which proteins are attached. The current model of LD biogenesis involves an incorporation of the lipid core into the membrane leaflets of the endoplasmic reticulum (ER) followed by a subsequent budding-like maturation of a LD, which ultimately pinches off. Once released, LD volume can increase by localized lipogenesis or fusion of existing droplet. Storage lipids are re-mobilized enzymatically by lipase activity. Lipase regulation in the adipocyte is heavily studied and involves multiple components including catecholamine signaling, the LD-associated proteins Perilipin and comparative gene identification (CGI-58) and at least two lipases named hormone sensitive lipase (HSL) and adipocyte triglyceride lipase (ATGL). LD regulation outside of the adipocyte is poorly understood and only few components are known. However, there is an urgent need to learn more about ectopic fat depots as mislocalized storage of lipids, for example in the liver or muscle, is an eminent health problem associated with insulin resistance or the metabolic syndrome. We developed a laser-scanning cytometer assay to enable 1,536-well screening and combined the results of the small molecules screen with an RNAi database based on lipid storage.
Triacsin C (Sigma-Aldrich T-4540), an inhibitor of long-chain fatty acyl CoA synthetase that blocks synthesis of triglycerides, was used as a positive control for lipid under-storage. A total of 23 nL of compound solution of different concentrations were transferred to the assay plates using a Kalypsys pin tool equipped with a 1,536-pin array containing 10-nL slotted pins (FP1S10, 0.457-mm diameter, 50.8 mm long; V&P Scientific). One microliter of oleic acid (400 uM) was added, and the plate was lidded with stainless steel rubber gasket lined lids containing pinholes. […] Fluorescence was detected by excitation of the fluorophores with a 488-nm laser on an Acumen Explorer (TTP Lab Tech). The total intensity in channel 2 (500-530 nm) reflected lipid droplet accumulation. Cells were detected using channel 3 (575-640 nm) with 5-um width and 100-um depth filters. The ratio of the number of objects in PMT channel 2 over the number of objects in PMT channel 3 was also calculated. Percent activity was computed relative to an internal control (100% inhibited lipid droplet deposition due to the presence of 20 uM Triacsin C), which was added to 32 wells/plate.

[1] = measured here: lipid fluorescence (Fed channel) AC50, cells fed with added oleic acid
[2] = measured here: cell number channel AC50, cells fed with added oleic acid

SMILES | cell number change [%] | AC50 [1] | AC50 [2]
CCOC(=O)c1sc2nc(CSc3ccccc3)[nH]c(=O)c2c1C | -7.57 | 20.6 µM [falling, single point] | 
O=[N+]([O-])c1ccc(/C([O-])=C(/C(=S)NCc2ccco2)[n+]2ccccc2)cc1 | -1.95 | 3.26 µM [falling, single point] | 
Cc1ccc(C(=O)OCC(=O)NCc2ccco2)cc1 | 8.15 | 0.58 µM [rising, single point] | 
CN(C)c1cccc2c(C=C(C#N)C#N)ccc(N(C)C)c12 | -30.9 | 0.651 µM [falling, full curve] | 2.06 µM [falling, full curve, poor fit]
COc1ccc(NC(=O)COC(=O)CCCc2c[nH]c3ccccc23)cc1 | 48.9 |  | 32.6 µM [rising, partial curve, poor fit]
C=CCNC(=O)CN1C(=O)c2cccc3cccc1c23 | 13.3 |  | 
Cc1noc(C)c1COC(=O)c1ccccc1NC(=O)c1ccco1 |  | 2.06 µM [rising, partial curve] | 4.61 µM [rising, single point]
CCc1c(O)nc(SCC(=O)Nc2ccccc2)n(C(C)CC)c1=O (configuration not stated) | 125 | 0.731 µM [falling, single point] | 
CCOC(=O)C1=NOC(Cn2cc(C(C)=O)c(=O)[nH]c2=O)C1 (configuration not stated) | 12.6 | 0.00461 µM [falling, full curve, poor fit] | 
Cc1ccc(CN(C)C(=O)c2cccc(S(=O)(=O)N3CCc4ccccc4C3)c2)o1 | -13.6 |  | 0.13 µM [falling, full curve, poor fit]
O=C(Nc1ccccc1)O/N=C1\CCCCC1c1ccc([N+](=O)[O-])cc1[N+](=O)[O-] (configuration not stated) | 15.8 |  | 
Nc1c(Cl)cc(C2=NCCn3nc4ccccc4c32)cc1Cl |  | 29.1 µM [falling, single point] | 
O=C(CNc1ccccc1)N/N=C/c1ccc2c(c1)OCO2 | -0.0444 | 0.00517 µM [rising, full curve, poor fit] | 
O=C(NNC(=O)c1cc2c(s1)CCCC2)c1ccccc1 | 33.9 | 1.03 µM [rising, full curve, poor fit] | 2.31 µM [rising, full curve, poor fit]
CCCN1CCC(NC(=O)Nc2ccc(OC)c(OC)c2)CC1 | 9.84 |  | 
CCOc1ccccc1N(CC(=O)Nc1ccc(S(=O)(=O)N2CCOCC2)cc1)S(=O)(=O)c1ccc(Cl)cc1 | -25.3 | 5.8 µM [falling, single point] | 
Nc1nc(-c2ccccc2)[nH]c(=O)c1N | -10.5 | 10.3 µM [rising, partial curve, poor fit] | 

Look-ups from the entries so far.
For AC50 [2], O=C(NNC(=O)c1cc2c(s1)CCCC2)c1ccccc1 is entered as 2.31 µM [rising, full curve, poor fit]
For AC50 [2], CN(C)c1cccc2c(C=C(C#N)C#N)ccc(N(C)C)c12 is entered as 2.06 µM [falling, full curve, poor fit]
